This is one part of the list. These are further read-outs of the screen, such as a control signal, another cell line or another target. No call is given for them. The list favours compounds with an active or inconclusive main result. The note in brackets gives the kind of curve behind each potency; many fits are weak.
Assay: qHTS Assay for Lipid Storage Modulators in Drosophila S3 Cells;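 for cell number change: cells counted by Cell Tracker Red CMTPX staining in the red channel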
Conditions: BODIPY lipid droplet fluorescence, 18-24 h; for cell number change: measured here: cell count max response, cells fed with added oleic acid
Procedure, shortened: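 Drosophila S3 cells loaded with oleic acid (400 uM, as added) and compounds at several concentrations; lipid droplets imaged by 488-nm laser-scanning cytometry, 500–530 nm intensity and object ratio to cell channel. Percent activity normalized to 20 uM Triacsin C.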

[1] = measured here: cell number channel AC50, cells fed with added oleic acid
[2] = measured here: lipid fluorescence (Fed channel) AC50, cells fed with added oleic acid

| SMILES | cell number change [%] | AC50 [1] | AC50 [2] |
| --- | --- | --- | --- |
| COc1ccc2nc(NC(=O)c3cnccn3)sc2c1 | 68.3 | 16.4 µM [rising, partial curve] |  |
| COc1ccc(N(CC(=O)Nc2ccc3c(c2)OCCO3)S(=O)(=O)c2c(C)nn(C)c2C)cc1 | 2.53 |  | 6.51 µM [falling, single point] |
| C=CCn1c(C2CC2)n[nH]c1=S | 151 | 20.6 µM [rising, single point] | 4.61 µM [falling, single point] |
| COCCSc1ccccc1C(=O)NCCc1ccccc1 | -19.7 |  |  |
| CC(NC(=O)c1cc(S(=O)(=O)N(C)C)ccc1Cl)c1ccc(-n2ccnc2)cc1 (configuration not stated) | 44.9 | 13 µM [rising, partial curve] | 7.31 µM [rising, partial curve] |
| Cc1ccc(NCCC(=O)c2ccc(Br)cc2)cc1 | -16.9 |  | 29.1 µM [falling, single point] |
| O=S(=O)(c1ccccc1)N1CCC(=NO)CC1 | 19.3 | 2.59 µM [rising, single point] | 3.66 µM [rising, single point] |
| COc1ccc(Cl)cc1NC(=O)c1ocnc1C | -7.65 |  | 0.146 µM [falling, full curve, poor fit] |
| CCOC(=O)c1ccc(CNC(=O)c2cc(COc3ccccc3SC)on2)o1 | 24.1 | 0.517 µM [rising, full curve] |  |
| Cc1ccc(Nc2c([N+](=O)[O-])c(=O)oc3ccccc23)cc1C | 6.09 |  |  |
| C=CCn1c(SCc2c(C)noc2C)nnc1C1COc2ccccc2O1 (configuration not stated) | 11.7 | 1.3 µM [rising, partial curve] |  |
| Cc1ccc(C(=O)Nc2nc(-c3ccccn3)cs2)o1 | -12.7 |  | 32.6 µM [falling, single point] |
| COc1ccc(S(=O)(=O)NCCC(=O)N2CCCN(C)CC2)cc1 | -3.63 |  | 0.00461 µM [falling, full curve, poor fit] |
| O=C(OCc1c(-c2ccccc2)ncc2ccccc12)N1CCOCC1 | 6.86 |  | 0.291 µM [falling, partial curve] |
| COc1cccc(CN(C)CC(=O)Nc2cccc(S(N)(=O)=O)c2)c1OC | 9.86 |  | 2.59 µM [rising, full curve] |
| CC(=O)Nc1ccc(NC(=O)C(C)OC(=O)CCCOc2ccc(Cl)cc2C)cc1 (configuration not stated) | -0.64 |  | 6.51 µM [falling, partial curve, poor fit] |
| Cc1ccc(C(=O)c2sc(Nc3ccccc3)c(C#N)c2N)cc1 | -55.1 | 1.16 µM [falling, partial curve] | 29.1 µM [falling, single point] |
| O=S(=O)(c1ccc(Cl)c(F)c1)N1CCC(c2nc(-c3ccncc3)no2)CC1 | 2.45 |  |  |
| CC(C)(C)C1=CC(=O)C(=O)C(C(C)(C)C)=C1 | -72.9 | 14.6 µM [falling, partial curve, poor fit] | 13 µM [falling, partial curve, poor fit] |
| CCOC(=O)C1CCN(S(=O)(=O)c2cccc(C(=O)Nc3ccccc3)c2)CC1 | 33.4 |  | 6.51 µM [rising, single point] |

Three structures out of the list, sorted by molecular weight, descending:

| SMILES | cell number change [%] | AC50 [1] | AC50 [2] |
| --- | --- | --- | --- |
| CCOC(=O)c1ccc(CNC(=O)c2cc(COc3ccccc3SC)on2)o1 | 24.1 | 0.517 µM [rising, full curve] |  |
| C=CCn1c(SCc2c(C)noc2C)nnc1C1COc2ccccc2O1 (configuration not stated) | 11.7 | 1.3 µM [rising, partial curve] |  |
| C=CCn1c(C2CC2)n[nH]c1=S | 151 | 20.6 µM [rising, single point] | 4.61 µM [falling, single point] |

More entries.

| SMILES | cell number change [%] | AC50 [1] | AC50 [2] |
| --- | --- | --- | --- |
| COc1ccccc1N1CCN(CCCNC(=O)Cn2ncc3c([nH]c4ccccc43)c2=O)CC1 | 0.298 |  |  |
| CSc1ccc(S(=O)(=O)N2CCC(C(=O)N3CCc4ccccc4C3)CC2)cc1 | 19.8 |  | 29.1 µM [falling, single point] |
| CCC1(C)Cc2c(sc(NC(=O)CCC(=O)O)c2C#N)CO1 (configuration not stated) | -0.682 |  | 0.366 µM [falling, full curve] |
| CC1CCCC(NC(=O)CN2C(=O)COc3ccccc32)C1C (configuration not stated) | 6.73 |  | 29.1 µM [rising, single point] |
| COc1ccccc1CNC(=O)C1CCN(S(=O)(=O)c2cccc([N+](=O)[O-])c2)CC1 | 18.7 |  | 0.58 µM [rising, single point] |
| COc1cccc(-c2nc(CS(=O)CC(=O)NCc3ccc4c(c3)OCO4)c(C)o2)c1 (configuration not stated) | 71.8 | 3.66 µM [rising, full curve] | 1.84 µM [rising, full curve] |
| COc1c(C)cc(Br)cc1C(=O)Nc1ccc(Cc2ccncc2)cc1 | 5.08 |  |  |
| O=C(c1ccc(Cl)c(S(=O)(=O)N2CCCCC2)c1)N1CCN(Cc2ccccc2)CC1 | -24.9 |  |  |
| CC(C)(C)c1cc(=O)[nH]c(SCc2ccccc2Cl)n1 | -45.8 |  | 4.11 µM [falling, partial curve, poor fit] |
| O=S(=O)(Nc1ncccn1)c1cc(Cl)ccc1Cl | -23.9 |  | 0.116 µM [falling, full curve, poor fit] |
| COc1ccc(CCNC(=O)Nc2cc(F)c(F)cc2Cl)cc1OC | -29 |  | 29.1 µM [falling, single point] |
| COc1ccc(NC(=O)CSc2ccc(-c3sc(C)nc3C)nn2)cc1OC | -2.6 |  | 0.146 µM [rising, full curve, poor fit] |
| CC(=O)Nc1ccc(NC(=O)C(C)OC(=O)C2CC(=O)N(CCc3ccccc3)C2)cc1 (configuration not stated) | -7.8 |  |  |
| O=C(Nc1cc(Cl)ccc1O)C1CCCO1 (configuration not stated) | -12.4 |  | 0.461 µM [rising, full curve, poor fit] |
| COC(=O)CN(C)C(=O)c1cccc(OC2CCN(S(=O)(=O)N(C)C)CC2)c1 | -5.77 |  |  |
| O=C(Nc1cccc(O)c1)c1noc2c1CCCCC2 | -26.6 | 1.46 µM [falling, partial curve, poor fit] | 6.51 µM [falling, single point] |
| CCOc1ccc(S(=O)(=O)N2CCCCC2)cc1NC(=O)CCc1ccc(OC)cc1 | -3.88 |  | 14.6 µM [falling, partial curve, poor fit] |
| CC1CCN(S(=O)(=O)c2ccc(Br)s2)CC1 | 9.44 |  |  |
| Cc1ccc(/C=N/NC(=S)NC2CCS(=O)(=O)C2)cc1 (configuration not stated) |  | 4.11 µM [falling, partial curve, poor fit] |  |
| Cc1c(C2N3CC4(C)CN2CC(C)(C3)C4=O)c2ccccc2n1C (configuration not stated) | -19.1 |  | 29.1 µM [falling, partial curve] |

Reference: PubChem BioAssay AID2685 (National Center for Advancing Translational Sciences (NCATS), 2010)
